Experimental data from the supplement of paper PMC8426693.
This is one part of the list.

Test system: SARS-CoV-2 5_SL8 RNA
Assay: NMR binding call after quantification (hit when 2 of 3 NMR criteria are met) (binary (1 = binding, 0 = not binding)); higher = binding
Conditions: RNA concentration 10 µM; fragment concentration 200 µM; 293 K

| SMILES | NMR binding call |
| --- | --- |
| Nc1cc(C(F)(F)F)ccc1N1CCCCC1 | 0 |
| CS(=O)(=O)NCCc1ccccc1 | 0 |
| CC(=O)c1ccc(OCC(=O)O)cc1 | 0 |
| c1nc(CN2CCNCC2)cs1 | 0 |
| Cc1nn(C)c(C)c1CC(N)=O | 0 |
| CC(C)(C)CC(=O)Nc1ccc(F)cc1F | 0 |
| O=C(O)c1ccccc1OC(F)(F)F | 0 |
| CC(=O)N1CCC(N)CC1 | 0 |
| CC(C)C(=O)Nc1ccc(N2CCCCC2)cc1 | 0 |
| Oc1ccccc1-c1nc(-c2ccccc2)no1 | 0 |
| CNC1(C(N)=O)CCCC1 | 0 |
| Cc1ccc(-c2noc(CNC(C)C)n2)cc1 | 0 |
| CNC(=O)c1cnc(C)s1 | 0 |
| Cc1cccc(C(=O)Nc2ccc(C)cc2O)c1 | 0 |
| CC(=O)N1Cc2ccc(N)cc2C1 | 0 |
| CCNC(=O)c1ccc(N(C)C)c(F)c1 | 0 |
| Cc1ccccc1OCC(=O)Nc1ccccc1 | 0 |
| O=C(Cc1ccc(Cl)cc1)Nc1ncccn1 | 0 |
| COc1ccc(Cl)cc1C(=O)NCC(C)C | 0 |
| COc1ccccc1NC(=O)c1ccc(C)s1 | 0 |

| SMILES | NMR binding call |
| --- | --- |
| CC1CCNC(C(N)=O)C1 (stereo not given) | 0 |
| O=C(Nc1ccc(N2CCOCC2)cc1)C1CC1 | 0 |
| CC(=O)Nc1cccc(F)c1C(=O)O | 0 |
| CN(c1ccc(C(N)=O)nn1)C1CCC1 | 0 |
| Nc1ncncc1-c1ccc(Cl)cc1 | 0 |
| CC(C)C(=O)Nc1cccc(C#N)c1 | 0 |
| CCc1nc(C2CCCN2)no1 (stereo not given) | 0 |
| Cc1cc2ncn(CC(N)=O)c2cc1C | 0 |
| O=C(c1c(F)cccc1F)N1CCCC1 | 0 |
| CC(=O)NCCc1ccc(S(N)(=O)=O)cc1 | 0 |
| Cc1cc(F)ccc1CS(N)(=O)=O | 0 |
| CC1CN(C(=O)c2cnsn2)C(C)CO1 (stereo not given) | 0 |
| CCS(=O)(=O)N1CCC(C(=O)O)CC1 | 0 |
| CC1(S(=O)(=O)N2CCC=C(F)C2)CC1 | 0 |
| Cc1cc(NC(=O)CCC2CCCCC2)no1 | 0 |
| O=C(O)COCc1ccccc1 | 0 |
| CC1(C)CN(c2ncccc2F)CC1O (stereo not given) | 0 |
| O=C(Nc1ccc(F)cc1F)Nn1cnnc1 | 0 |
| CCc1nnc(NC(=O)c2cnccn2)s1 | 0 |
| CCC(=O)NCc1nnc2n1CCCC2 | 0 |

Test system: SARS-CoV-2 attenuator hairpin (att HP) RNA
Assay: as above
Conditions: RNA concentration 10 µM; fragment concentration 200 µM; 293 K

| SMILES | NMR binding call |
| --- | --- |
| Nc1cc(C(F)(F)F)ccc1N1CCCCC1 | 0 |
| CS(=O)(=O)NCCc1ccccc1 | 0 |
| CC(=O)c1ccc(OCC(=O)O)cc1 | 0 |
| c1nc(CN2CCNCC2)cs1 | 0 |
| Cc1nn(C)c(C)c1CC(N)=O | 0 |
| CC(C)(C)CC(=O)Nc1ccc(F)cc1F | 0 |
| O=C(O)c1ccccc1OC(F)(F)F | 0 |
| CC(=O)N1CCC(N)CC1 | 0 |
| CC(C)C(=O)Nc1ccc(N2CCCCC2)cc1 | 0 |
| Oc1ccccc1-c1nc(-c2ccccc2)no1 | 0 |
| CNC1(C(N)=O)CCCC1 | 0 |
| Cc1ccc(-c2noc(CNC(C)C)n2)cc1 | 0 |
| CNC(=O)c1cnc(C)s1 | 0 |
| Cc1cccc(C(=O)Nc2ccc(C)cc2O)c1 | 0 |
| CC(=O)N1Cc2ccc(N)cc2C1 | 0 |
| CCNC(=O)c1ccc(N(C)C)c(F)c1 | 0 |
| Cc1ccccc1OCC(=O)Nc1ccccc1 | 0 |
| O=C(Cc1ccc(Cl)cc1)Nc1ncccn1 | 0 |
| COc1ccc(Cl)cc1C(=O)NCC(C)C | 0 |
| COc1ccccc1NC(=O)c1ccc(C)s1 | 0 |

| SMILES | NMR binding call |
| --- | --- |
| CC1CCNC(C(N)=O)C1 (stereo not given) | 0 |
| O=C(Nc1ccc(N2CCOCC2)cc1)C1CC1 | 0 |
| CC(=O)Nc1cccc(F)c1C(=O)O | 0 |
| CN(c1ccc(C(N)=O)nn1)C1CCC1 | 0 |
| Nc1ncncc1-c1ccc(Cl)cc1 | 0 |
| CC(C)C(=O)Nc1cccc(C#N)c1 | 0 |
| CCc1nc(C2CCCN2)no1 (stereo not given) | 0 |
| Cc1cc2ncn(CC(N)=O)c2cc1C | 0 |
| O=C(c1c(F)cccc1F)N1CCCC1 | 0 |
| CC(=O)NCCc1ccc(S(N)(=O)=O)cc1 | 0 |
| Cc1cc(F)ccc1CS(N)(=O)=O | 0 |
| CC1CN(C(=O)c2cnsn2)C(C)CO1 (stereo not given) | 0 |
| CCS(=O)(=O)N1CCC(C(=O)O)CC1 | 0 |
| CC1(S(=O)(=O)N2CCC=C(F)C2)CC1 | 0 |
| Cc1cc(NC(=O)CCC2CCCCC2)no1 | 0 |
| O=C(O)COCc1ccccc1 | 0 |
| CC1(C)CN(c2ncccc2F)CC1O (stereo not given) | 0 |
| O=C(Nc1ccc(F)cc1F)Nn1cnnc1 | 0 |
| CCc1nnc(NC(=O)c2cnccn2)s1 | 0 |
| CCC(=O)NCc1nnc2n1CCCC2 | 0 |
